Consider 20 molecules from PubChem BioAssay AID330 (DTP/NCI, 2004).

The list shows only some results of the screen, not a fair sample: it is rich in T/C values a quarter to a half above the control, in often repeated tests (any T/C) and in doses without a T/C. Other doses and runs of a compound stand elsewhere. T/C is the treated group as % of the vehicle group. Some entries give survivors of the animals treated and no T/C: the source files T/C as zero there, which appears to mark a toxic dose or a test without result, not a measured value. Some survivor counts are full or nearly so, which does not show that the dose was tolerated: survival well below the control is almost never listed, so the zero probably covers shortened survival too. Survivors were counted at the toxicity check, usually on the fifth day, unless a day is given; later deaths do not show. Schedules are NCI's codes, taken here to give the interval after Q, in days (D) or hours (H), and the number of doses after X. Some doses were run more than once; the results are listed from low to high. For survival time, the PubChem record calls one and a half times the control and up active, and a quarter to a half above the control has no call in these data; cut-offs in other NCI protocols can differ. Some T/C values are followed by the survivors on the day toxicity was checked, most often the fifth; where none is given, no animal had died by that day.

In the test the test system is P388 leukemia ip, CD2F1 mice, survival T/C. Put plainly: NCI In Vivo Anticancer Drug Screen. Data for tumor model P388 Leukemia (intraperitoneal) in CD2F1 (CDF1) mice. The settings on record: T/C endpoint: median survival time, higher T/C = longer survival.
Where [1] appears, read: dose: 50.0 mg/kg/injection, schedule: Q01DX009 (ip), vehicle: saline with Tween-80.
Setting [2] is: dose: 100.0 mg/kg/injection, schedule: Q01DX009 (ip), vehicle: saline with Tween-80.
Where [3] appears, read: dose: 200.0 mg/kg/injection, schedule: Q01DX009 (ip), vehicle: Klucel (hydroxypropylcellulose) (HPC).
Where [4] appears, read: dose: 400.0 mg/kg/injection, schedule: Q04DX003 (ip), vehicle: saline with Tween-80.
[5] abbreviates: dose: 8.0 mg/kg/injection, schedule: Q01DX009 (ip), vehicle: water.

`CCOC(=O)C1=C(C)N(C)C(C)=C(C(=O)OCC)C1c1ccc(Cl)cc1`: the survivor count (dose: 200.0 mg/kg/injection, schedule: Q01DX009 (ip), vehicle: distilled water + Tween-80) is given as 6 of 6.

Turning to `C=C1C(=O)C23C(O)C1CCC2C12COC3(O)C(O)C1C(C)(C)CCC2OC(C)=O` (centres undefined), the survivor count is given as 5 of 6 (dose: 40.0 mg/kg/injection, schedule: Q01DX009 (ip), vehicle: saline with Tween-80); 2 of 3 under setting [1]; 0 of 6 (dose: 80.0 mg/kg/injection, schedule: Q01DX009 (ip), vehicle: saline with Tween-80); 0 of 3 under setting [2].

On to `CN1CCN(CC(=O)N/N=C/c2ccc([N+](=O)[O-])o2)CC1`, for which the T/C under setting [3] was 125 % of control [4 of 6 alive].

In the case of `c1ccc([P+](CCN2Cc3ccccc3C2)(c2ccccc2)c2ccccc2)cc1`, where the note is “dose: 25.0 mg/kg/injection, schedule: Q01DX009 (ip), vehicle: saline”, the survivor count is 5 of 5 and 6 of 6.

On to `Cc1c[n+]([O-])ccc1Br`, for which, for the setting “dose: 100.0 mg/kg/injection, schedule: Q01DX009 (ip), vehicle: water”, the survivor count is given as 5 of 6.

For the molecule `C=C1C(=O)OC2/C=C(\C)CC/C=C(/C=O)C(OC(=O)C(C)C)C(O)C12` (centres undefined), the survivor count is, setting by setting: (dose: 16.0 mg/kg/injection, schedule: Q01DX009 (ip), vehicle: saline + alcohol) 1 of 4; (dose: 32.0 mg/kg/injection, schedule: Q01DX009 (ip), vehicle: saline + alcohol) 1 of 4.

As for `O=C(c1ccc(-c2ccccc2)cc1)C1C(c2ccccc2)N1C1CCCCC1` (centres undefined), the survivor count is, setting by setting: (dose: 12.5 mg/kg/injection, schedule: Q01DX009 (ip), vehicle: other) 6 of 6; (dose: 50.0 mg/kg/injection, schedule: Q01DX009 (ip), vehicle: other) 6 of 6; (dose: 200.0 mg/kg/injection, schedule: Q01DX009 (ip), vehicle: other) 6 of 6.

On to `CC(=O)[O][Hg][O]C(C)=O`, for which the survivor count is, setting by setting: (dose: 2.5 mg/kg/injection, schedule: Q01DX009 (ip), vehicle: saline with Tween-80) 4 of 6; (dose: 5.0 mg/kg/injection, schedule: Q01DX009 (ip), vehicle: saline with Tween-80) 0 of 6.

For `C=CCN(CC=C)CCSC(=S)NCCOC`, the survivor count under setting [4] is given as 6 of 6.

As for `COc1cc2c(c(OC)c1OC)-c1ccc(OC)c(=O)cc1C(=O)CC2`, the T/C runs as follows: (dose: 1.25 mg/kg/injection, schedule: Q01DX009 (ip), vehicle: Klucel (hydroxypropylcellulose) (HPC)) 125 and 133 % of control; (dose: 2.5 mg/kg/injection, schedule: Q01DX009 (ip), vehicle: Klucel (hydroxypropylcellulose) (HPC)) 130 and 140 % of control; (dose: 5.0 mg/kg/injection, schedule: Q01DX009 (ip), vehicle: Klucel (hydroxypropylcellulose) (HPC)) 149 % of control. The survivor count was 6 of 6 (dose: 10.0 mg/kg/injection, schedule: Q01DX009 (ip), vehicle: Klucel (hydroxypropylcellulose) (HPC)) and 3 of 6 (dose: 20.0 mg/kg/injection, schedule: Q01DX009 (ip), vehicle: Klucel (hydroxypropylcellulose) (HPC)).

On to `COc1cccc2c1C(=O)c1c(O)c3c(c(O)c1C2=O)C[C@@](O)(C(C)=O)C[C@@H]3OC1CC(N(C)C)C(O)C(C)O1` (some centres undefined), for which the T/C is 136 % of control (dose: 0.25 mg/kg/injection, schedule: Q01DX009 (ip), vehicle: water); 149 % of control (dose: 0.5 mg/kg/injection, schedule: Q01DX009 (ip), vehicle: water); 125 % of control (dose: 2.5 mg/kg/injection, schedule: Q01DX001 (ip), vehicle: water); 130 % of control (dose: 2.5 mg/kg/injection, schedule: Q04DX003 (ip), vehicle: water); 147 % of control (dose: 3.6 mg/kg/injection, schedule: Q04DX003 (ip), vehicle: water); 127 % of control (dose: 5.0 mg/kg/injection, schedule: Q01DX001 (ip), vehicle: water). For the same molecule, the T/C (dose: 10.0 mg/kg/injection, schedule: Q04DX003 (ip), vehicle: water, evaluated on day 30) is 145 % of control; the T/C (dose: 10.0 mg/kg/injection, schedule: Q04DX003 (ip), vehicle: water, evaluated on day 45) is 141 % of control; the T/C (dose: 20.0 mg/kg/injection, schedule: Q04DX003 (ip), vehicle: water) was 138 % of control [5 of 6 alive]. Further, the survivor count under setting [5] is recorded as 6 of 6; the survivor count (dose: 16.0 mg/kg/injection, schedule: Q01DX009 (ip), vehicle: water) is on record as 6 of 6; the survivor count (dose: 40.0 mg/kg/injection, schedule: Q01DX001 (ip), vehicle: water) was 6 of 6; the survivor count (dose: 80.0 mg/kg/injection, schedule: Q01DX001 (ip), vehicle: water) is listed as 4 of 6.

As to `CCCc1c(Cl)nc(Cl)nc1Cl`, the T/C was 127 % of control under setting [2] and 130 % of control (dose: 100.0 mg/kg/injection, schedule: Q04DX003 (ip), vehicle: saline with Tween-80). The survivor count is, setting by setting: (dose: 150.0 mg/kg/injection, schedule: Q01DX009 (ip), vehicle: saline with Tween-80) 3 of 6; (dose: 200.0 mg/kg/injection, schedule: Q04DX003 (ip), vehicle: saline with Tween-80) 3 of 6; under setting [4], 3 of 6.

Turning to `COc1ccc(NC(=O)Nc2ccc(NC(C)=O)cc2)c(OC)c1`, the survivor count is reported as 6 of 6 (dose: 60.0 mg/kg/injection, schedule: Q01DX005 (ip), vehicle: saline with Tween-80); 6 of 6 (dose: 120.0 mg/kg/injection, schedule: Q01DX005 (ip), vehicle: saline with Tween-80); 5 of 6 (dose: 240.0 mg/kg/injection, schedule: Q01DX005 (ip), vehicle: saline with Tween-80).

On to `Cc1cccc(CNc2cccc(C)n2)n1`, for which, under “dose: 200.0 mg/kg/injection, schedule: Q01DX005 (ip), vehicle: saline”, the survivor count is 0 of 6.

Turning to `C/C=C(/C)C(=O)O[C@H]1CC[C@@]2(C)[C@@H]3CC[C@H]4[C@]5(O)C[C@H](O)[C@@]6(O)[C@@H](CN7C[C@@H](C)CC[C@H]7[C@@]6(C)O)[C@]5(O)C[C@@]42O[C@@]13O`, the survivor count is 3 of 6 (dose: 3.12 mg/kg/injection, schedule: Q01DX009 (ip), vehicle: saline with Tween-80); 0 of 6 (dose: 12.5 mg/kg/injection, schedule: Q01DX009 (ip), vehicle: saline with Tween-80); 0 of 6 (dose: 25.0 mg/kg/injection, schedule: Q01DX009 (ip), vehicle: saline with Tween-80); 0 of 6 under setting [1].

With `Cc1ccc(S(=O)(=O)Nc2cccc3c(NS(=O)(=O)c4ccc(C)cc4)cccc23)cc1`, the survivor count (dose: 400.0 mg/kg/injection, schedule: Q01DX009 (ip), vehicle: saline with Tween-80) is on record as 6 of 6.

Turning to `COP(=O)(OC)OC.COP(=O)(OC)OC.COP(=O)(OC)OC.COP(=O)(OC)OC.COP(=O)(OC)OC.COP(=O)(OC)OC.[Mn+2].[O-][Cl+3]([O-])([O-])O`, the survivor count (dose: 100.0 mg/kg/injection, schedule: Q01DX009 (ip), vehicle: saline) is 6 of 6. Moreover, the T/C (dose: 200.0 mg/kg/injection, schedule: Q01DX009 (ip), vehicle: saline) is 129 % of control.

Consider `COc1cc(OC)c(NC(=O)CC2SC(N)=NC2=O)cc1Cl` (centres undefined), for which, under setting [3], the survivor count is 5 of 6.

Take `CSC(=S)NS(=O)(=O)c1cccs1`: under setting [3], the survivor count was 0 of 6.

Consider `CC[C@@]1(O)C[C@H](OC2CC(N(C)C)C(OC3CC4OC5CC(=O)C(C)OC5OC4C(C)O3)C(C)O2)c2c(cc3c(c2O)C(=O)c2c(O)cccc2C3=O)[C@H]1C(=O)OC` (some centres undefined), for which, for the setting “dose: 2.0 mg/kg/injection, schedule: Q01DX009 (ip), vehicle: water”, the T/C is 132 % of control. Also, the survivor count under setting [5] was 4 of 6.
